According to PubChem BioAssay AID624297 (National Center for Advancing Translational Sciences (NCATS), 2012):
The whole screen tested about 340,000 compounds, of which about 6,200 (1.8%) were called active. The shares of active, inactive and inconclusive entries below differ from those in the screen. Calls follow the shape of the dose curve; as a rule, active = well fitted activation curve with a large enough effect; inconclusive = small, poorly fitted or top-dose-only effect; inactive = no such curve, though single readings can be large or run the other way. Potencies of inconclusive entries are doubtful fits and often do not repeat.

Assay: A quantitative high throughput screen for small molecules that induce DNA re-replication in SW480 colon adenocarcinoma cells. Also: nearly all actives have a fitted effect of over 55% in size. As to re-replication activation: % of control where 0% means no effect.
Settings: Hoechst DNA content imaging, 48 h; re-replication activation: at 46.1 µM (top of the series) unless noted
Procedure, shortened: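 Per well, 250 cells were exposed to pinned compound for 48 hr. Nuclear DNA was visualised with Hoechst (40 min, 37 C) and total object intensity recorded by fluorescence scanning.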
Potency is read from the fitted curve at half-maximal effect.

Row | Structure (SMILES) | Potency | re-replication activation
1 | C=CCN=c1sc(C(=O)OC)cc(=O)n1CC=C | inconclusive: 32.6 µM [activator, single point] | 
2 | CN1CCC2(CC1)C1CN(C)CC=C1C(C#N)=C(N)C2(C#N)C#N (stereo unspecified) | inconclusive: 29.1 µM [activator, single point] | 
3 | COc1ccc(/C=C/C(=O)C2C(=O)C=C(C)OC2=O)cc1O (stereo unspecified) | inconclusive: 18.4 µM [activator, partial curve] | 
4 | Cc1cc(N2CCOCC2)nc2ccc(NC(=S)N3CCCCC3C)cc12 (stereo unspecified) | active: 18.4 µM | 
5 | O=C(Nn1c(O)c(C=C2N=c3ccccc3=N2)sc1=S)c1ccccc1Cl | inconclusive: 15.8 µM [activator, partial curve, poor fit] | 
6 | COc1cc(CNC2CCCC2)c(Br)cc1OC1CCCC1 | inactive | 
7 | COc1ccccc1/C=C/C=N/n1c(-c2ccncc2)n[nH]c1=S | inconclusive: 29.1 µM [activator, single point] | 
8 | N#C/C(=C\c1ccc(N2CCOCC2)o1)c1ccccc1 | inconclusive: 25.9 µM [activator, single point] | 
9 | Cc1nn(C)c(C)c1NC(=O)CCCSc1nc(-c2ccco2)cc(C(F)(F)F)n1 | inactive | 
10 | CC(=O)Nc1cccc(OCCCOc2cccc([N+](=O)[O-])c2)c1 | inconclusive: 29.1 µM [activator, partial curve, poor fit] | 
11 | CCC(=O)Nc1c2c(nn1-c1ccc(C)cc1)CS(=O)(=O)C2 |  | inconclusive: 47.6% [activator]
12 | O=C(NC1CCCCC1)c1cc2c(cc1Cl)N1CCCCCC1=NS2(=O)=O | inconclusive: 5.8 µM [activator, full curve, poor fit] | 
13 | CC(NC(=O)c1ccco1)C(=O)Nc1nc(-c2ccccn2)cs1 (stereo unspecified) | inconclusive: 23.1 µM [activator, single point] | 
14 | Cc1ccc(S(=O)(=O)c2nc(-c3ccccc3Cl)oc2N2CCN(C)CC2)cc1 | inconclusive: 29.1 µM [activator, single point] | 
15 | COC(=O)c1ccccc1-c1ccc(/C=N/NC(=O)c2cc3ccccc3o2)o1 | inactive | 
16 | COc1ccc(NCC(O)Cn2c(C)c(C)c3ccccc32)cc1 (stereo unspecified) | inconclusive: 29.1 µM [activator, single point] | 
17 | CC1CCCCC1NC(=O)CSc1ccc([N+](=O)[O-])cc1 (stereo unspecified) | inactive | 
18 | COCCn1cnc2c(c1=O)c1nc3ccccc3nc1n2/N=C/c1ccc(OC)c(OC)c1 | inconclusive: 7.31 µM [activator, single point] | 
19 | COc1ccc(N=CC2=C(O)CC(c3ccccc3)CC2=O)c(OC)c1 (stereo unspecified) | inconclusive: 18.4 µM [activator, single point] | 
20 | C/C(CCC1CC(C)OC1=O)=N\NC(N)=S (stereo unspecified) | inconclusive: 29.1 µM [activator, single point] | 
21 | CC1CN(Cc2ccccc2)C(=O)N(c2ccccc2)C1=O (stereo unspecified) | inactive | 
22 | O=C(NCCOc1cccnc1)C1CCC(=O)N(Cc2ccccc2F)C1 (stereo unspecified) | inconclusive: 29.1 µM [activator, single point] | 
23 | Cc1ccc(N(CC(=O)NC(C)c2ccccc2)S(=O)(=O)c2c(C)noc2C)cc1 (stereo unspecified) | inconclusive: 3.16 µM [activator, single point] | 
24 | O=C(Nc1ccc(Cl)cc1)OCc1cn(-c2ccccc2)nn1 | inconclusive: 18.4 µM [activator, single point] | 

Row | Structure (SMILES) | Potency | re-replication activation
25 | CCn1cc(CN2CCC(C(=O)Nc3ccc(Oc4ccccc4F)cc3)CC2)c(C)n1 | inconclusive: 20.6 µM [activator, single point] | 
26 | CCOc1ccc(S(=O)(=O)N=C(c2ccccc2)N2CCOCC2)cc1 | inactive | 
27 | CCOc1ccc(OCCC(=O)OCC(=O)N(CC)c2c(N)n(Cc3ccccc3)c(=O)[nH]c2=O)cc1 | inactive | 
28 | O=C(c1cc(-c2ccc(Cl)s2)nc2ccccc12)N1CCCC1 | inactive | 
29 | CCOC(=O)C(NC(C)=O)C(O)c1ccc([N+](=O)[O-])cc1 (stereo unspecified) | inactive | 
30 | NNc1nnc2c3cc(F)ccc3n(CCc3ccccc3)c2n1 | active: 4.11 µM | 
31 | OC(COc1cccc2ccccc12)CN1CCN(c2ccc(Cl)cc2)CC1 (stereo unspecified) | inactive | 
32 | N=c1c(C(=O)NCCN2CCOCC2)cc2c(=O)n3ccccc3nc2n1CCc1ccccc1 | active: 10.3 µM | 
33 | COCCN(Cc1cc2cc3c(cc2nc1Cl)OCO3)C(=O)c1ccc(C)cc1 | inconclusive: 6.51 µM [activator, single point] | 
34 | CCNC(=S)Nc1ccc2ncoc2c1 | inconclusive: 0.231 µM [activator, single point] | 
35 | NC(=O)c1ccccc1NC(=S)NC(=O)CCc1ccccc1 | active: 3.26 µM | 
36 | CC(C)(C)C1CCC(CN2C(Nc3ccccc3)=NC[C@@H]2Cc2ccccc2)CC1 (stereo partly specified) | inconclusive: 25.9 µM [activator, partial curve, poor fit] | 
37 | CC(=O)Nc1ccccc1OCC(=O)NCC(F)(F)F | inactive | 
38 | COc1ccc2oc(=O)c(C(=O)N3c4ccccc4CC3C)cc2c1 (stereo unspecified) | inactive | 
39 | Cc1nc2ccccn2c1-c1ccnc(SCc2ccc(Cl)cc2)n1 | inactive | 
40 | O=C(Nc1ccc(F)c(F)c1)C1CCCN(S(=O)(=O)c2cccc3nonc23)C1 (stereo unspecified) | inconclusive: 20.6 µM [activator, single point] | 
41 | CCN(CC)c1ccc(NC(=O)c2cccc(OC)c2)c(C)c1 | inconclusive: 20.6 µM [activator, single point] | 
42 | CCN1C/C(=C/c2ccc(N3CCOCC3)cc2)C(=O)/C(=C/c2ccc(N3CCOCC3)cc2)C1 | active: 16.4 µM | 
43 | CCCC(=O)Nc1nc2c(OC)ccc(OC)c2s1 | inactive | 
44 | CCN1C(=O)CSC1=NC12CC3CC(CC(C3)C1)C2 | inactive | 
45 | O=C1NC[C@H](Cc2ccccc2)N(C[C@H]2CCCN2C[C@H](Cc2ccccc2)N2C[C@H](Cc3ccc(O)cc3)N(CC3CCCCCC3)C(=O)C2=O)C1=O | inconclusive: 20.6 µM [activator, single point] | 
46 | COc1ccc(-c2cc(C(F)(F)F)nc(N3CCOCC3)n2)cc1OC | inactive | 
47 | CC1(C)C2([N+](=O)[O-])CN3CC1([N+](=O)[O-])CN(C2)C3C(O)C(O)C(O)CO (stereo unspecified) | active: 10.3 µM | 
48 | COc1ccc(CNCC(O)(c2ccccc2)c2ccc(Cl)cc2)cc1 (stereo unspecified) | inconclusive: 25.9 µM [activator, single point] | 

Fetched one by one from above (6):
Row | Structure (SMILES) | Potency | re-replication activation
39 | Cc1nc2ccccn2c1-c1ccnc(SCc2ccc(Cl)cc2)n1 | inactive | 
40 | O=C(Nc1ccc(F)c(F)c1)C1CCCN(S(=O)(=O)c2cccc3nonc23)C1 (stereo unspecified) | inconclusive: 20.6 µM [activator, single point] | 
21 | CC1CN(Cc2ccccc2)C(=O)N(c2ccccc2)C1=O (stereo unspecified) | inactive | 
47 | CC1(C)C2([N+](=O)[O-])CN3CC1([N+](=O)[O-])CN(C2)C3C(O)C(O)C(O)CO (stereo unspecified) | active: 10.3 µM | 
23 | Cc1ccc(N(CC(=O)NC(C)c2ccccc2)S(=O)(=O)c2c(C)noc2C)cc1 (stereo unspecified) | inconclusive: 3.16 µM [activator, single point] | 
45 | O=C1NC[C@H](Cc2ccccc2)N(C[C@H]2CCCN2C[C@H](Cc2ccccc2)N2C[C@H](Cc3ccc(O)cc3)N(CC3CCCCCC3)C(=O)C2=O)C1=O | inconclusive: 20.6 µM [activator, single point] | 

Carrying on.

Row | Structure (SMILES) | Potency | re-replication activation
49 | Cc1[nH]c2ccccc2c1N=Nc1cc(C(=O)O)cc(C(=O)O)c1 | inconclusive: 1.3 µM [activator, partial curve, poor fit] | 
50 | C=CCNC(=S)NNc1nc2c(c(=O)[nH]1)C1(CCCCC1)Cc1ccccc1-2 | inconclusive: 29.1 µM [activator, single point] | 
51 | CCCc1cc(N2CCCC(C(=O)NCc3ccc4c(c3)OCO4)C2)n2ncnc2n1 (stereo unspecified) | inactive | 
52 | CCC(=O)NCCCNc1nc2c(C)cccc2cc1C#N | inconclusive: 18.4 µM [activator, single point] | 
53 | CCCCn1c(=N)c(S(=O)(=O)c2ccc(Br)cc2)cc2c(=O)n3cccc(C)c3nc21 | inconclusive: 0.326 µM [activator, full curve] | 
54 | O=C(c1ccc(N2CCCCC2)c([N+](=O)[O-])c1)N1CCN(S(=O)(=O)c2ccccc2)CC1 | inactive | 
55 | Cc1c(Cl)c([N+](=O)[O-])nn1CCCC(=O)N(Cc1ccccc1)Cc1ccccc1 | inconclusive: 20.6 µM [activator, single point] | 
56 | CN(CC(=O)Nc1ccccc1C(=O)NC1CC1)Cc1ccc(Cl)s1 | inconclusive: 29.1 µM [activator, single point] | 
57 | O=[N+]([O-])c1ccc(NN=Cc2cccc3ccccc23)cc1 | active: 1.16 µM | 
58 | Cc1ccccc1CN1CCN(C2CCC2)CC1CCO (stereo unspecified) | inconclusive: 0.0065 µM [activator, full curve, poor fit] | 
59 | CCCc1nnc(NC(=O)c2nc(S(=O)(=O)Cc3ccc(C)cc3)ncc2Cl)s1 | active: 8.2 µM | 
60 | CCCCOC(=O)NC1CCc2cc(OC)c(OC)c(OC)c2-c2ccc(SC)c(=O)cc21 (stereo unspecified) | inconclusive: 0.0366 µM [activator, full curve, poor fit] | 
61 | O=C(CN1C(=O)c2ccc([N+](=O)[O-])cc2C1=O)NC1CCCCCC1 | inconclusive: 5.8 µM [activator, partial curve, poor fit] | 
62 | O=C1/C(=C/c2cccnc2)Sc2ccccc21 | inconclusive: 23.1 µM [activator, partial curve, poor fit] | 
63 | OCC(O)CN1CCCC1 (stereo unspecified) | inactive | 
64 | COCC(=O)N/N=C\c1ccccc1OC/C=C/c1ccccc1 | inconclusive: 18.4 µM [activator, single point] | 
65 | Clc1ccc2nc(-c3ccccc3)nc(C(Cl)Cl)c2c1 | inconclusive: 8.2 µM [activator, partial curve, poor fit] | 
66 | CCOCc1c(C(=O)NCc2ccccc2CN2CCCC2)oc2ccccc12 | inconclusive: 29.1 µM [activator, single point] | 
67 | Cc1ncc(CO)c(/C=N/NC(=O)c2cccc(S(=O)(=O)N3CCCC3)c2)c1O | inconclusive: 18.4 µM [activator, single point] | 
68 | Cn1cc(C(=O)NCc2cccs2)c(=O)c2cc(S(=O)(=O)N3CCCC3)ccc21 | inactive | 
69 | NC(=O)c1cn(-c2ccccc2)nc1-c1cc2ccccc2oc1=O | inactive | 
70 | O=[N+]([O-])c1cccnc1Sc1n[nH]c(-c2ccc(Cl)cc2)n1 | inconclusive: 1.84 µM [activator, full curve, poor fit] | 
71 | CC(C)c1ccc(OCCCCN2CCCCC2)cc1 | inconclusive: 23.1 µM [activator, single point] | 
